# According to article PMC8753592, “Long-acting capsid inhibitor protects macaques from repeat SHIV challenges” (Nature, 2021):
# Values joined by “and” are separate entries in the source; they are usually repeats but may differ in a detail not shown here. Identical values can stand only once. This continues a long series; more values of the same kind are listed elsewhere.
# Assay: Plasma GS-CA1 pharmacokinetics in the repeat SHIV challenge study
# Type: in vivo, rhesus macaques of Indian origin
# Protocol: For the challenge study, 24 outbred rhesus macaques of Indian origin were assigned to the three study groups with even sex and weight distributions. All animals were housed at Alpha Genesis (Yemassee, SC), and all procedures were conducted in compliance with all relevant local, state and federal regulations and were approved by the Alpha Genesis IACUC. […] The injection sites were monitored daily by veterinary staff for 3 days. Beginning in week 1, animals in all three groups were challenged by the intrarectal route with 1 ml of RPMI containing the specified dilution of a 3.62 × 10^3 TCID50 SHIV-SF162P3 stock. At each respective time point, the challenges were performed on the same day, using the same virus stock and inoculation method across the three groups. Whole blood was collected and processed into plasma and PBMCs as necessary to assess routine haematology, clinical chemistry, viral load and serology as well as for bioanalysis of drug levels. The animals were considered to be protected if they remained SHIV negative by plasma PCR assay and seronegative by enzyme immunoassay throughout the 15-week challenge phase and the 9-week follow-up.
# Rhesus plasma samples were stored frozen at −80 °C.
smiles,measurement,setting,value
CC(C)(C#Cc1ccc(-c2ccc(Cl)c3c(NS(=O)(=O)C4CC4)nn(CC(F)F)c23)c([C@H](Cc2cc(F)cc(F)c2)NC(=O)Cn2nc(C(F)F)c3c2C(F)(F)[C@@H]2C[C@H]32)n1)S(C)(=O)=O [GS-CA1],Plasma GS-CA1,"GS-CA1 150mg/kg, Week 1, individual animals, 150 mg/kg",899.55 nM and 682.28 nM and 607.28 nM and 3112.4 nM and 2515.88 nM and 761.71 nM and 881.7 nM and 687.72 nM
same,Plasma GS-CA1,"GS-CA1 150mg/kg, Week 2, individual animals, 150 mg/kg",1188.65 nM and 785.09 nM and 1097.4 nM and 2107.99 nM and 2027.37 nM and 1058.77 nM and 1219.47 nM and 772.74 nM
same,Plasma GS-CA1,"GS-CA1 150mg/kg, Week 3, individual animals, 150 mg/kg",497.91 nM and 268.8 nM and 333.73 nM and 751.15 nM and 1370.65 nM and 334.48 nM and 208.6 nM and 196.6 nM
same,Plasma GS-CA1,"GS-CA1 150mg/kg, Week 4, individual animals, 150 mg/kg",153.01 nM and 236.71 nM and 181.28 nM and 538.14 nM and 447.86 nM and 225.23 nM and 165.1 nM and 67.54 nM
same,Plasma GS-CA1,"GS-CA1 150mg/kg, Week 5, individual animals, 150 mg/kg",181.45 nM and 86.54 nM and 202.79 nM and 333.46 nM and 449.04 nM and 141.28 nM and 113.5 nM and 95.4 nM
same,Plasma GS-CA1,"GS-CA1 150mg/kg, Week 6, individual animals, 150 mg/kg",238.73 nM and 84.2 nM and 202.04 nM and 164.24 nM and 313.35 nM and 81.89 nM and 78.22 nM and 94.45 nM
same,Plasma GS-CA1,"GS-CA1 150mg/kg, Week 7, individual animals, 150 mg/kg",104 nM and 58.28 nM and 136.23 nM and 139.14 nM and 249.92 nM and 68.8 nM and 45.78 nM and 64.92 nM
same,Plasma GS-CA1,"GS-CA1 150mg/kg, Week 8, individual animals, 150 mg/kg",126.07 nM and 152.23 nM and 170.61 nM and 117.65 nM and 160.15 nM and 80.45 nM and 55.63 nM and 81.64 nM
same,Plasma GS-CA1,"GS-CA1 150mg/kg, Week 9, individual animals, 150 mg/kg",74.21 nM and 60.58 nM and 79.54 nM and 80.39 nM and 134.53 nM and 64.84 nM and 24.54 nM and 26.69 nM
same,Plasma GS-CA1,"GS-CA1 150mg/kg, Week 10, individual animals, 150 mg/kg",50.06 nM and 64.16 nM and 94.96 nM and 71.29 nM and 143.77 nM and 40.65 nM and 34.92 nM and 30.22 nM
same,Plasma GS-CA1,"GS-CA1 150mg/kg, Week 11, individual animals, 150 mg/kg",28.74 nM and 29.18 nM and 53.1 nM and 51.13 nM and 71.46 nM and 23.98 nM and 12.35 nM and 18.52 nM
same,Plasma GS-CA1,"GS-CA1 150mg/kg, Week 12, individual animals, 150 mg/kg",46.73 nM and 64.14 nM and 60.15 nM and 56 nM and 122.09 nM and 35.07 nM and 15.87 nM and 20.76 nM
same,Plasma GS-CA1,"GS-CA1 150mg/kg, Week 13, individual animals, 150 mg/kg",44.36 nM and 69.19 nM and 42.95 nM and 48.2 nM and 62.92 nM and 42.14 nM and 9.51 nM and 14.42 nM
same,Plasma GS-CA1,"GS-CA1 150mg/kg, Week 14, individual animals, 150 mg/kg",34.07 nM and 37.18 nM and 42.14 nM and 41.88 nM and 89.43 nM and 23.2 nM and 7 nM and 12.98 nM
same,Plasma GS-CA1,"GS-CA1 150mg/kg, Week 15, individual animals, 150 mg/kg",17.38 nM and 37.73 nM and 25.05 nM and 38.57 nM and 44.35 nM and 22.39 nM and 4.16 nM and 9.5 nM
same,Plasma GS-CA1,"GS-CA1 150mg/kg, Week 16, individual animals, 150 mg/kg",12.74 nM and 17.69 nM and 12.49 nM and 11.32 nM and 27.66 nM and 12.82 nM and 1.61 nM and 6.13 nM
same,Plasma GS-CA1,"GS-CA1 150mg/kg, Week 17, individual animals, 150 mg/kg",16.54 nM and 20.95 nM and 14.29 nM and 11.67 nM and 20.8 nM and 13.83 nM and 1.22 nM and 5.08 nM
same,Plasma GS-CA1,"GS-CA1 150mg/kg, Week 18, individual animals, 150 mg/kg",11.37 nM and 21.96 nM and 14.77 nM and 17.45 nM and 26.6 nM and 9.89 nM and 1.7 nM and 4.55 nM
same,Plasma GS-CA1,"GS-CA1 150mg/kg, Week 19, individual animals, 150 mg/kg",19.32 nM and 31.14 nM and 16.18 nM and 26.67 nM and 23.66 nM and 14.78 nM and 2.45 nM and 4.87 nM
same,Plasma GS-CA1,"GS-CA1 150mg/kg, Week 20, individual animals, 150 mg/kg",17.47 nM and 23.39 nM and 12.31 nM and 15.93 nM and 26.89 nM and 11.3 nM and 1.35 nM and 3.73 nM
same,Plasma GS-CA1,"GS-CA1 150mg/kg, Week 21, individual animals, 150 mg/kg",4.49 nM and 6.46 nM and 2.59 nM and 3.91 nM and 7.83 nM and 3.15 nM and 1 nM
same,Plasma GS-CA1,"GS-CA1 150mg/kg, Week 22, individual animals, 150 mg/kg",3.38 nM and 6.86 nM and 2.53 nM and 2 nM and 5.84 nM and 1.85 nM and 1 nM
same,Plasma GS-CA1,"GS-CA1 150mg/kg, Week 23, individual animals, 150 mg/kg",2.14 nM and 3.4 nM and 1.2 nM and 1.06 nM and 3.85 nM and 1.48 nM and 1 nM
same,Plasma GS-CA1,"GS-CA1 150mg/kg, Week 24, individual animals, 150 mg/kg",4.67 nM and 4.61 nM and 1.83 nM and 2.28 nM and 3.82 nM and 2.11 nM and 1 nM
same,Plasma GS-CA1,"GS-CA1 300mg/kg, Week 1, individual animals, 300 mg/kg",6745.1 nM and 5527.81 nM and 3173.56 nM and 2250.56 nM and 1571.81 nM and 7818.17 nM and 2215.11 nM and 1943.85 nM
same,Plasma GS-CA1,"GS-CA1 300mg/kg, Week 2, individual animals, 300 mg/kg",5020.82 nM and 1944.23 nM and 2465.66 nM and 1332.35 nM and 2066.12 nM and 3982.53 nM and 1948.63 nM and 1830.01 nM
same,Plasma GS-CA1,"GS-CA1 300mg/kg, Week 3, individual animals, 300 mg/kg",1253.58 nM and 941.93 nM and 1003.46 nM and 894.45 nM and 508.47 nM and 1653.88 nM and 632.49 nM and 741.55 nM
same,Plasma GS-CA1,"GS-CA1 300mg/kg, Week 4, individual animals, 300 mg/kg",743.3 nM and 863.19 nM and 663.58 nM and 529.86 nM and 358.71 nM and 724.82 nM and 416.16 nM and 362.21 nM
same,Plasma GS-CA1,"GS-CA1 300mg/kg, Week 5, individual animals, 300 mg/kg",556.02 nM and 402.12 nM and 486.51 nM and 395.27 nM and 265.76 nM and 522.82 nM and 267.83 nM and 377.26 nM
same,Plasma GS-CA1,"GS-CA1 300mg/kg, Week 6, individual animals, 300 mg/kg",395.92 nM and 369.69 nM and 282.5 nM and 382.44 nM and 161.43 nM and 241.65 nM and 272.87 nM and 350.17 nM
same,Plasma GS-CA1,"GS-CA1 300mg/kg, Week 7, individual animals, 300 mg/kg",342.71 nM and 179.75 nM and 260.83 nM and 339.37 nM and 180.41 nM and 131.88 nM and 157.56 nM and 306.88 nM
same,Plasma GS-CA1,"GS-CA1 300mg/kg, Week 8, individual animals, 300 mg/kg",287.02 nM and 209.19 nM and 239.58 nM and 319.17 nM and 140.45 nM and 378.49 nM and 155.27 nM and 225.76 nM
same,Plasma GS-CA1,"GS-CA1 300mg/kg, Week 9, individual animals, 300 mg/kg",146.99 nM and 126.8 nM and 131.46 nM and 82.73 nM and 87.54 nM and 177.38 nM and 103.79 nM and 122.13 nM
same,Plasma GS-CA1,"GS-CA1 300mg/kg, Week 10, individual animals, 300 mg/kg",131 nM and 72.85 nM and 69.86 nM and 54.53 nM and 98.13 nM and 116.65 nM and 106.49 nM and 114.46 nM
same,Plasma GS-CA1,"GS-CA1 300mg/kg, Week 11, individual animals, 300 mg/kg",96.21 nM and 31.54 nM and 50.2 nM and 50.03 nM and 60.16 nM and 93.91 nM and 52.24 nM and 72.29 nM
same,Plasma GS-CA1,"GS-CA1 300mg/kg, Week 12, individual animals, 300 mg/kg",52.67 nM and 93.47 nM and 85.26 nM and 65.93 nM and 84.23 nM and 74.51 nM and 101.46 nM
same,Plasma GS-CA1,"GS-CA1 300mg/kg, Week 13, individual animals, 300 mg/kg",66.2 nM and 32.01 nM and 73.76 nM and 74.07 nM and 43.01 nM and 66.16 nM and 46.75 nM and 76.93 nM
same,Plasma GS-CA1,"GS-CA1 300mg/kg, Week 14, individual animals, 300 mg/kg",62.7 nM and 39.51 nM and 82.73 nM and 93.72 nM and 44.99 nM and 84.64 nM and 41.4 nM and 86.17 nM
same,Plasma GS-CA1,"GS-CA1 300mg/kg, Week 15, individual animals, 300 mg/kg",31.84 nM and 47.7 nM and 47.41 nM and 46.82 nM and 46.22 nM and 29.22 nM and 49.88 nM
same,Plasma GS-CA1,"GS-CA1 300mg/kg, Week 16, individual animals, 300 mg/kg",26.06 nM and 21.9 nM and 27.7 nM and 23.64 nM and 20.26 nM and 34.03 nM and 14.71 nM and 29.78 nM
same,Plasma GS-CA1,"GS-CA1 300mg/kg, Week 17, individual animals, 300 mg/kg",22.7 nM and 16.57 nM and 27.76 nM and 26.06 nM and 20.51 nM and 24.33 nM and 12.8 nM and 38.1 nM
same,Plasma GS-CA1,"GS-CA1 300mg/kg, Week 18, individual animals, 300 mg/kg",33.14 nM and 13.56 nM and 30.17 nM and 25.35 nM and 35.49 nM and 27.53 nM and 17.91 nM and 47.6 nM
same,Plasma GS-CA1,"GS-CA1 300mg/kg, Week 19, individual animals, 300 mg/kg",41.41 nM and 14.88 nM and 69.82 nM and 46.95 nM and 28.95 nM and 44.98 nM and 17.38 nM and 40.91 nM
same,Plasma GS-CA1,"GS-CA1 300mg/kg, Week 20, individual animals, 300 mg/kg",25.1 nM and 13.16 nM and 46.61 nM and 34.18 nM and 32.72 nM and 41.86 nM and 12.28 nM and 43.8 nM
same,Plasma GS-CA1,"GS-CA1 300mg/kg, Week 21, individual animals, 300 mg/kg",13.1 nM and 4.74 nM and 11.2 nM and 9.27 nM and 9.56 nM and 8.58 nM and 3.77 nM and 14.4 nM
same,Plasma GS-CA1,"GS-CA1 300mg/kg, Week 22, individual animals, 300 mg/kg",9.23 nM and 3.77 nM and 10.4 nM and 6.6 nM and 9.38 nM and 8.89 nM and 3.44 nM and 9.91 nM
same,Plasma GS-CA1,"GS-CA1 300mg/kg, Week 23, individual animals, 300 mg/kg",7.16 nM and 2.69 nM and 7.58 nM and 5.41 nM and 6.2 nM and 5.6 nM and 1.57 nM and 9.56 nM
same,Plasma GS-CA1,"GS-CA1 300mg/kg, Week 24, individual animals, 300 mg/kg",6.55 nM and 2.72 nM and 10.3 nM and 5.77 nM and 6.9 nM and 7.12 nM and 1.32 nM and 10.7 nM
